# Measured values reported in ChEMBL document CHEMBL4296182, “CO-ADD screening of NIH NCI Diversity Set V”.
# The other results are listed elsewhere or left out. Results with a measured potency or affinity are listed apart.
# System: Pseudomonas aeruginosa
# Details: Concentration 20 uM; ASSAY_TEST Inhibition of Bacterial Growth; detection method Absorption (OD600); MEDIA CAMHB; plate type 384well; NBS; CORNING #3640; time 18 hr
row,SMILES,Inhibition [%]
1,COc1cc(C(O)c2nc3ccccc3s2)cc(OC)c1OC (configuration not stated),16.19
2,Oc1cccc2cnccc12,21.27
3,CCC(CO)Nc1nc2ccc(Cl)cc2c2ccccc12 (configuration not stated),16.3
4,CCCCC(=O)N(CCC)CCC,18.06
5,O=C(Nc1ccsn1)c1ccc(Cl)cc1Cl,10.62
6,CCOC(=O)C1CC(C)=C(C)CC1C(=O)O (configuration not stated),0.56
7,COc1cc2oc3cc(C)oc(=O)c3c2cc1OC,16.39
8,Nc1ccc(SCc2nc3cccc4c3n2CCC4)cc1,19.18
9,COc1cccc2nc3cc(C)c(C)cc3nc12,17.29
10,COc1cc(C(=O)c2cocc2C(=O)c2ccc3c(c2)OCO3)cc(OC)c1OC,16.12
11,CC(=O)Nc1ccc(OCCOc2ccc([N+](=O)[O-])cc2)cc1,23.44
12,CCN1CCC(Nc2ccnc3cc(Cl)ccc23)CC1,-3.06
13,CC1=NCC(C)c2ccccc21 (configuration not stated),15.66
14,CN(C)c1ccc(C(c2ccc(N(C)C)cc2)c2ccc([N+](=O)[O-])cc2)cc1,16.19
15,COc1ccc([N+](=O)[O-])cc1NS(=O)(=O)c1ccc(C)cc1,28.95
16,Cc1ccc(Nc2nnc(-c3ccc4c(c3)OCO4)o2)c(C)c1,14.11
17,Cc1ccc(Nc2nc(Cl)nc3ncn(C)c23)c(C)c1,-3.7
18,Cc1nc(S)nc(O)c1Cc1c(O)ccc2ccccc12,1.78
19,COc1ccccc1NC(=O)Nc1cc(C(C)C)ccc1C,-7.42
20,Cc1c([N+](=O)[O-])oc2c1C(=O)NCCC2,6.19
21,CN(C)c1ccc(/C=C(\C#N)C(=O)c2ccccc2)cc1,21.3
22,CCC(C)NC(=O)c1cccc(C)c1 (configuration not stated),23.16
23,O=C(Nc1cccc(Cl)c1)Nc1nccs1,9.58
24,CCNc1nc(Cl)nc(-c2cn(-c3ccccc3)c3ccccc23)n1,19.71

row,SMILES,Inhibition [%]
1,CC1=CC(=C2C=CC(=O)C=C2)C=C(C)N1C,-0.86
2,Clc1ccccc1/C=C/c1ccnc2ccccc12,8.03
3,Cn1ncc2c(NCc3ccccc3)ncnc21,19.06
4,COc1ccc(NC(=O)N2CCN(C(=O)Nc3ccc(OC)cc3)CC2)cc1,-2.6
5,CC(=O)Oc1ccc2cc(-c3ccccc3)c(=O)oc2c1,-1.9
6,CC(C)CNC(=O)/C=C\C(=O)O,-9.36
7,NS(=O)(=O)c1ccc(NC(=S)NC(=O)c2ccco2)cc1,30.83
8,Cc1cc(O)c2cc(C(=O)c3ccccc3)ccc2n1,5.32
9,CN1CCC(=C(c2ccc(Cl)cc2)c2ccccn2)CC1.O=C(O)/C=C\C(=O)O [CYCLIRAMINE MALEATE],13.91
10,CC(C)c1ncc(CO)n1Cc1c(Cl)cccc1Cl,7.86
11,COCC(=O)Oc1cc(-c2ccc(C)cc2C)c(OC(=O)COC)c(-c2ccc(C)cc2C)c1,14.74
12,O=C(O)CSc1ccc(NC(=O)Nc2ccccc2F)cc1,24.08
13,Cc1cc(=O)n2nc(-c3ccc(C(C)(C)C)cc3)cc2[nH]1,14.85
14,O=C(Nc1ccc(Oc2ccc(NC(=O)Nc3ccccc3Cl)cc2)cc1)Nc1ccccc1Cl,23.74
15,COc1cc([N+](=O)[O-])ccc1NC(=O)Oc1ccc(NC(C)=O)cc1,10.1
16,Clc1[nH]cnc2nccc1-2,9.19
17,Oc1ccc(/N=N/c2ccccc2)c(O)c1/N=N/c1ccccc1,-15.52
18,O=C(/C=C\c1ccc2ccccc2n1)c1cc(Cl)ccc1O,-12.14
19,Nc1ccc(C(=O)c2cccs2)cn1,7.89
20,Cc1n[nH]c2nc(N)nn2c1=O,21.41
21,COc1cc2c(cc1OC)C(C1(O)CCCCC1)NCC2 (configuration not stated),12.15
22,Cc1nn(-c2ccccc2)c2c1C(c1ccc([N+](=O)[O-])cc1)C(C#N)=C(N)O2 (configuration not stated),20.65
23,O=S(=O)(Oc1ccc(Cl)cc1)c1cccc2cccnc12,22.42
24,O=C(CN1CCCC1)Nc1nc(-c2ccc(Cl)cc2)cs1,-12.45

row,SMILES,Inhibition [%]
1,Cc1cc(NC(=O)Nc2cc(F)ccc2F)no1,9.73
2,COC(=O)c1ccccc1NCCO,21.15
3,Cc1ccc(S(=O)(=O)Oc2cc(N)c3c(n2)CCC3)cc1,19.57
4,O=C(c1ccccc1)c1ccc[nH]1,-20.58
5,Nc1ccc(C(=O)Nc2ccc(NC(=O)c3ccco3)c(O)c2)cc1,22.22
6,Cc1ccc(-c2cssc2=S)cc1,-31.4
7,CN(c1cccnc1)c1[nH]cnc2nncc1-2,-5.61
8,CSC1=NC=C(C#N)C2=NC(c3ccc(Cl)cc3)NN12 (configuration not stated),19.69
9,Cn1ncc2c(Nc3ccc(O)cc3)nc(Cl)nc21,4.53
10,O=C(NC(=S)Nc1ccccn1)c1ccccc1,11.42
11,O=c1cc(-c2ccc(O)cc2)oc2c(O)c(O)c(O)c(O)c12,15.74
12,COc1ccc2c3c([nH]c2c1)[C@H]1C[C@H]2[C@H](C[C@@H](O)[C@H](OC)[C@H]2CO)CN1CC3,13.68
13,O=[N+]([O-])c1nc[nH]c1/C=C\c1ccccc1,9.45
14,Cc1nc(N)nc(O)c1CCCNc1ccc(CCC2(CCl)OCCO2)cc1,22.01
15,COc1ccc(C2OC3=Nc4cc(C)c(C)cc4NC3=C2O)cc1 (configuration not stated),17.42
16,C1CCCC(NC2=NCCO2)CCC1,-24.38
17,OC(C#Cc1ccccc1)(c1ccccc1)c1ccccc1,5.55
18,O=[N+]([O-])c1cccc(/C=C/c2ccccn2)c1,19.15
19,CCC(CC)NCCOC(=O)c1ccc([N+](=O)[O-])cc1,11.76
20,O=C(N(c1ccccc1)c1ccccc1)N(c1ccccc1)c1ccccc1,30.32
21,Oc1ccc2ccccc2c1/N=N/c1ccc(F)cc1,0.71
22,CN1C(=O)CC2(C)C1=CCc1scnc12 (configuration not stated),-0.94
23,CC12C(=O)N(c3nccs3)C(=O)C1(C)C1CCC2O1 (configuration not stated),3.99
24,CCOC(=O)c1c(N)ssc1=S,0.4

# Filtered by structure: those above with a COOH group
row,SMILES,Inhibition [%]
6,CCOC(=O)C1CC(C)=C(C)CC1C(=O)O (configuration not stated),0.56
6,CC(C)CNC(=O)/C=C\C(=O)O,-9.36
9,CN1CCC(=C(c2ccc(Cl)cc2)c2ccccn2)CC1.O=C(O)/C=C\C(=O)O [CYCLIRAMINE MALEATE],13.91
12,O=C(O)CSc1ccc(NC(=O)Nc2ccccc2F)cc1,24.08

# Next results

row,SMILES,Inhibition [%]
1,Cc1cc(OCCCCOc2ccc(C#N)cc2)ccc1[N+](=O)[O-],18.43
2,O=C1NC(=O)N2CCSC2(Cc2ccccc2)N1 (configuration not stated),0.32
3,Cc1ccc(/N=N/c2ccc(C)cc2NC(=O)Nc2ccccc2F)cc1,20.01
4,O=[N+]([O-])c1ccc2[nH]c3nc4ccccc4nc3c2c1,-7.68
5,CC(C)n1cc(C#N)c(N)n1,21.51
6,Cc1ccc(Cl)cc1NC(=O)c1cc2ccccc2cc1O,18.12
7,C=CCOCCN(CC)CC,-10.94
8,COc1ccccc1C1OC2=Nc3cc([N+](=O)[O-])ccc3NC2=C1O (configuration not stated),10.41
9,CCCSc1ncnc2[nH]ncc12,12.64
10,NC(=S)NC(=O)c1ccccc1,19.62
11,C=CCC(CC)C(=O)NC(=O)N1CCCc2ccccc21 (configuration not stated),-1.54
12,Nc1o[nH]c(=O)c1C1CCCCC1,24.88
13,Cn1c(=O)c2nc(SCc3ccccn3)[nH]c2n(C)c1=S,18.43
14,c1ccc(/N=N/N2CCOCC2)cc1,0.98
15,COc1cc(CC(=O)C(=O)O)oc(=O)c1,1.6
16,C=CCNC(S)=Nc1c(N)n(C)c(=O)n(C)c1=O,-17.65
17,CCS(=O)(=O)C1C(=O)N(C)C(S(=O)(=O)CC)C(=O)N1C (configuration not stated),15.36
18,OCc1nc2nc(Cl)c(Cl)[nH]c-2n1,-6.12
19,CC(=O)N1C(=O)C2(NCC(C)N2)c2ccccc21 (configuration not stated),10.87
20,CC1=CC(=O)Nc2cncnc2N1,16.17
21,COc1ccn(C2CCCCO2)c(=O)n1 (configuration not stated),2.49
22,c1ccc(-c2nc[nH]c2-c2ccccc2)cc1,12.66
23,CC12CCC(C1)C(C)(C)C2OC(=O)c1ccccc1C(=O)O (configuration not stated),13.04
24,Oc1nc2ccccc2n1C1=CCNCC1,2.93

# Quoted from the listing:
# Inhibition [%] with CC(C)c1ncc(CO)n1Cc1c(Cl)cccc1Cl is entered as 7.86
# Inhibition [%] with CC(=O)Oc1ccc2cc(-c3ccccc3)c(=O)oc2c1 is entered as -1.9
# Inhibition [%] with Cn1ncc2c(NCc3ccccc3)ncnc21 is entered as 19.06

# (cont.)

row,SMILES,Inhibition [%]
1,Cc1ccc(/N=N/c2c(O)c3ccccc3[nH]c2=O)c(S(=O)(=O)N(C)C)c1,26.99
2,O=c1[nH]c(=O)n2ncnc2[nH]1,10.65
3,O=CN/C=C\c1cc(O)ccc1O,-23.16
4,CSc1nc(C)cc(S)n1,2.94
5,N#CCS(=O)(=O)c1cccc[n+]1[O-],0.13
6,CC1(C)c2ccccc2-c2nc3ccccc3cc2C1O (configuration not stated),-4.4
7,O=C(c1ccccc1)c1ccc(-c2ccc(O)cc2)cc1,17.15
8,CC(=O)c1cc2c(cc1C)CCCC2(C)C,17.61
9,C=CCOC(=O)/C=C\C(=O)NC(N)=O,6.38
10,Nc1ccccc1C(=O)Nc1ccc(Cl)cc1Cl,25.31
11,N#Cc1cc(-c2ccccc2)[nH]c1-c1nccc2ccccc12,3.93
12,O=C(O)CCc1cccnc1,24.36
13,Clc1ccccc1-c1nc(-c2ccncc2)no1 [PIFEXOLE],9.89
14,O=C(O)c1nn(-c2ccccc2-c2nnc(O)nc2O)c(=O)[nH]c1=O,13.93
15,CSc1nc(S)c2[nH]c(S)nc2n1,6.05
16,COc1ccc([N+](=O)[O-])cc1NC(=O)N(C)Cc1ccco1,19.99
17,Cc1ccc(-n2nnnc2-c2cccnc2)cc1,12.5
18,O=S1(=O)CCN(Cc2ccccn2)CC1,5.43
19,CCCCCC(=O)C(=O)c1ccc(O)cc1O,2.6
20,O=C(CN1CCOCC1)N1CCOCC1,11.38
21,c1ccc(NN(Cc2ccncc2)c2ccccc2)cc1,12.56
